Results as given in the supplement of paper PMC3334620.
The full ranking holds about 33,000 sequences; the median of “E-score (-0.5 to 0.5)” is about -0.0014, and the highest 2% start at about 0.25. The list shows a part of the results.

biological target: T1, Cad1 (UniProt P24813); test: PBM E-score (8-mer binding enrichment) (E-score (-0.5 to 0.5)); higher = stronger / more preferred TF binding; conditions: protein concentration: 100 nM; construct: GST-full length
T1 sequence: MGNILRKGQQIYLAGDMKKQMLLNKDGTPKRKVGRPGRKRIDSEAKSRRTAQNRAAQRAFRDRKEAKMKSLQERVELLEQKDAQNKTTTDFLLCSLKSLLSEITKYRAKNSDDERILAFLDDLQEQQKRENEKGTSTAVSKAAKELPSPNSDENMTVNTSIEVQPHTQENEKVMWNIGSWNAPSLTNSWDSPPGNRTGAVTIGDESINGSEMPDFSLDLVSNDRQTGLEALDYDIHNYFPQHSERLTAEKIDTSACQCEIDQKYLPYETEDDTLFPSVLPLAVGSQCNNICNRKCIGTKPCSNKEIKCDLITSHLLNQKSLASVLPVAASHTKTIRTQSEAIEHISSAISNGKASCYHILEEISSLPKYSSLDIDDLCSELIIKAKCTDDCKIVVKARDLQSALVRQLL
How it was run: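 Universal all-10-mer Agilent arrays, fresh or stripped once, were converted to double-stranded form by primer extension. GST-tagged yeast transcription factors from PURExpress in vitro transcription/translation, full-length or DNA-binding domain only, were applied at about 100-200 nM and detected with fluorescent anti-GST. After masliner normalisation, the Universal PBM Analysis Suite scored each ungapped eight-base word together with its reverse complement by E-score.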

Sequence | PBM E-score
ATCTTTCC | 0.0734
GATACGTA | 0.0757
CCATGCCA | -0.0107
AGTGAAAG | 0.0653
CAAGGTCA | -0.212
ATTCTCGC | -0.144
AAGTAATC | 0.179
GAACAGTC | -0.0401
ATCTTGGC | -0.0337
AGAAAGAG | -0.111
CAGGATAG | 0.107
AGGTGCCC | -0.214
CAAACTAG | -0.224
ATGAACAT | 0.124
CCCGTTTC | -0.03
AGCGCCAG | 0.00152
CTGAATGC | -0.025
ATCCATTG | 0.0418
GGCATGGA | -0.0221
AGCACCCT | -0.21
GTTATGTA | 0.0817
ACTCAGGC | 0.0666
CCTGTCAA | -0.0529
ATCCCGTG | 0.243
AGGAGCTG | -0.159

Pulled one by one from the entries so far, two records:
Sequence | PBM E-score
GTTATGTA | 0.0817
AGCGCCAG | 0.00152

(further entries)

Sequence | PBM E-score
AAGGGCGA | -0.206
TCCAGGGA | -0.219
CACACTCC | 0.0254
ACAGGGCG | 0.0956
CGGGAGAC | -0.106
GCTCGGGA | -0.13
AACATATC | 0.0764
GGATAGAA | 0.0535
GCTAGACA | 0.0865
CCTGCGAG | -0.103
GCCCTGCA | -0.0779
CTCCTGAA | -0.16
AGACGTAA | 0.0228
AACCGAAG | 0.069
AAGATACC | 0.188
CGGCTGTA | -0.112
CCAGACAC | -0.204
CTCGGTCC | 0.0048
CGCCCAAG | -0.155
TCGAATAA | 0.0909
CGGTTACA | 0.177
CATTACCC | -0.225
CGTGATAG | 0.03
CATCGCCC | -0.238
CTAAACTA | -0.0586

Some values from the list.
TCCAGGGA – PBM E-score: -0.219
CTCCTGAA – PBM E-score: -0.16

Additional records

Sequence | PBM E-score
ATTTTAAG | 0.0929
ACAGGCTA | -0.232
TGATTAAA | 0.123
ACCGAGAT | 0.0127
CACTCTCG | 0.0619
AAGGGCGT | -0.0183
AGGTAACG | -0.0725
CATTTTCG | 0.0501
GTGTGGAA | -0.03
CCATGGAA | -0.0381
CTCTGTTA | -0.0607
ATTGGAAC | 0.0974
AATGACCT | -0.188
GCACTGTA | 0.0956
CTACATCA | -0.00088
TAGTATCA | 0.265
GAAAGGAA | 0.0254
AGGTGATG | -0.0954
ATAGACGG | 0.0351
AGCGAGAG | 0.149
CTGACCAG | -0.00702
TAACTGTA | -0.0191
AGTTACGC | -0.0449
GCCACGAC | 0.101
AGTAGAGG | -0.313

Sequence | PBM E-score
ACTTATTG | 0.0709
AAGGGTTC | -0.113
ATTATGTG | 0.25
AAACTGAA | 0.0681
ACGACCGG | -0.151
CGAGTTCA | 0.18
AAGGATAC | -0.0624
GGGCCTAA | 0.00864
CCTTTACA | 0.00128
CCACGATA | 0.0424
ATGTCGTC | -0.0531
ACTTCGCC | 0.0662
CTCTAATA | 0.142
ACCTCGTG | 0.0262
AACAGCCA | 0.106
CTCACGTA | -0.0707
AAGTTTAA | -0.14
CGAACGTC | -0.111
AAAGGGTT | -0.126
ACATACAA | -0.103
GACCTGCA | -0.116
AATACAGT | -0.078
AGGTGCTG | 0.0156
AAAATTAG | 0.269
AACGAGAC | -0.0583

Sequence | PBM E-score
CATACAAA | 0.0561
AAACCCTG | -0.0698
TACCCCAA | -0.111
CCCCAGCG | -0.181
CACTCGGG | 0.0224
TCGCATAA | 0.137
GTGATACA | 0.00492
CATCCGTC | -0.00289
AGATTGCC | 0.00042
CGACAATA | 0.204
CTCCCAAG | -0.193
GTCCTTCA | 0.0516
ATGCCTGA | -0.0626
ATTAGCCC | -0.0965
ACCTAATC | 0.259
AAAGATAT | 0.277
GAAACATC | -0.0415
GAATGCCC | -0.363
ATGTGGAG | -0.14
CCAGATTC | -0.205
CACGCCCG | -0.0611
TCGCAGCA | 0.0936
ATTGCGCG | 0.307
CATAAGGC | 0.0526
GACACGGC | -0.0501

Sequence | PBM E-score
GGAAGCAA | -0.0549
ATCATTTA | 0.114
ACAATGCC | -0.107
GCCTTGCA | -0.117
ATAAAGGG | -0.175
CCTCTAAA | -0.0976
AGCATCTC | -0.177
AGCAGAGC | -0.268
AGGACGTC | 0.0529
ACCCTCTC | -0.183
CACCATCG | -0.125
GTCCCTAA | -0.0901
CTCGCAAA | -0.106
GACTGTAC | -0.137
GCACAAAA | 0.18
CATTACGA | 0.0111
AACGATAA | 0.0289
ATAACCCG | -0.101
CCTGGGAA | -0.0443
CCGATTCG | 0.189
ACGGTCAA | -0.00707
CCTGATCA | -0.0505
CGTCATCC | 0.0396
AAAGGATC | -0.0492
CGAACCCA | 0.0048

Copied from above for reference:
Sequence | PBM E-score
GTCCCTAA | -0.0901
CTCGCAAA | -0.106

(list continues)

Sequence | PBM E-score
AAACTCTC | 0.229
CATGGTTA | 0.205
AAGGACTT | -0.217
AGCCTCAT | -0.165
ATCTCATC | 0.15
CAAATCCA | 0.136
CGCCACCG | -0.0723
CTGTACGA | 0.00563
AGTGTGAG | -0.134
AAGGGTCT | -0.22
ACCAGTAG | -0.0961
CTTGGATA | -0.00444
ATTGGCGA | -0.0146
GTTTAGGA | -0.189
AGAGCGGA | 0.0529
AATCACCT | -0.113
CCGTATGC | -0.0646
AGCCCTCG | -0.0628
CAGTTAAA | -0.0815
TTCTTAAA | -0.122
AACAGATG | -0.0988
GCGCGACC | 0.154
